# According to PubChem BioAssay (EPA / NIEHS):
# Protein sequences, listed by entry. Tags and fused reporters are not part of them. Lines headed by an entry give the natural chain unless they say otherwise; changes in a name come on top.
# UniProt P19793: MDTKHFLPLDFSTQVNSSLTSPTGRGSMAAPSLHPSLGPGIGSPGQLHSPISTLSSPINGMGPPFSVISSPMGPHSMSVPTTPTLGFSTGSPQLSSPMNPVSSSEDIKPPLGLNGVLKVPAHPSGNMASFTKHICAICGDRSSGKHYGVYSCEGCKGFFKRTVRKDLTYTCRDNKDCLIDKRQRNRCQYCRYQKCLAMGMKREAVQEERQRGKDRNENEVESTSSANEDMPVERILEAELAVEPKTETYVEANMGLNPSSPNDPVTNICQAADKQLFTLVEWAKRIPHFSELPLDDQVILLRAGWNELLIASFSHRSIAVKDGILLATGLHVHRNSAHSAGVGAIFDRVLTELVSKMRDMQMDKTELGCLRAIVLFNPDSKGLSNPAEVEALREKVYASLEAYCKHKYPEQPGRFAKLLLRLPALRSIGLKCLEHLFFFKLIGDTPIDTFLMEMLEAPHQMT
# UniProt P04637, whole entry, looked up: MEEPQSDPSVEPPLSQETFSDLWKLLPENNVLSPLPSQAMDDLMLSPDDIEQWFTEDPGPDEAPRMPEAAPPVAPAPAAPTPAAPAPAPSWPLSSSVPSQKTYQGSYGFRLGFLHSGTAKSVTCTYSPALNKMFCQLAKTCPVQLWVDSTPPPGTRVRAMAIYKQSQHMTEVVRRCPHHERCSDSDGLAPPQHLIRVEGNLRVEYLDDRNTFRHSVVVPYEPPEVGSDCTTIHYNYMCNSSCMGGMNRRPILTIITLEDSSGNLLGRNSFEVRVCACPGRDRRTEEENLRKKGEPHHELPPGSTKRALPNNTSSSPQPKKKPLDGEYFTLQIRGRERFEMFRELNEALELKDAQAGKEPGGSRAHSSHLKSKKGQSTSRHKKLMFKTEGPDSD
# Where “and” joins values, the source holds several entries; their conditions need not be identical. Equal values may be shown once. This list was built around the results that the source calls inconclusive (neither active nor inactive); the mix of calls is not that of the screen. For part of these data: Potencies beside an inconclusive call are fits to weak or partial responses and may not hold up. Calls of active or inactive are those of the source. The calls were made as follows: active = hit-call score of the fitted dose curve at least 0.9, where 1 is the maximum; inconclusive = response in the unintended direction; inactive = score below 0.9.
# What was measured:
# [1] = biological target: Retinoic acid receptor RXR-alpha (Homo sapiens) (UniProt P19793); test: OT_NURR1_NURR1RXRa_0480: Odyssey Thera (OT) 8-hour HEK293T Protein Complementation Assay for Nurr1/retinoid X receptor (RXR) (AID 2283385)
# Summary of the method: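 HEK293T cells expressing Nurr1 and RXRα fused to reporter fragments were dosed with compound for 8 hours. Complex formation was read as fluorescence intensity and analysed as gain of signal against DMSO as baseline.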
# [2] = TOX21_p53_BLA_p2_viability: Viability Assessment in the Tox21 HCT-116 p53 Agonism Beta-lactamase Assay, Phase 2 (AID 2283591);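 also: compound exposure lasted 16 h at 37 °C; actives lower the ATP signal meaning cytotoxicity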
# Summary of the method: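 HCT116 p53-bla cells, 4000/well, dosed after 5 h plating (217-fold dilution of DMSO stocks) and incubated 16 h at 37C. Viability taken as cellular ATP by CellTiter-Glo luminescence after 30 min RT; signal loss marks cytotoxicity.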
# [3] = biological target: Cellular tumor antigen p53 (Homo sapiens) (UniProt P04637); test: TOX21_p53_BLA_p2_ratio: Tox21 HCT-116 p53 Agonism Beta-lactamase Assay, Ratio, Phase 2 (AID 2283592)
# Summary of the method: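 Gain-of-signal p53 agonism was scored from the beta-lactamase FRET ratio (460/530 nm, 405 nm excitation) in HCT116 cells treated 16 h at 37C, 5% CO2, with DMSO serving as negative control and baseline.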
# [4] = TOX21_p53_BLA_p3_viability: Viability Assessment in the Tox21 HCT-116 p53 Agonism Beta-lactamase Assay, Phase 3 (AID 2283593);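 also: cells exposed to compound for 16 h before reading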
# Summary of the method: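 HCT116 cells, 4000/well, dosed 5 h after plating by pin transfer (217-fold dilution from DMSO stock) and incubated 16 h at 37C, 5% CO2. Viability read as ATP luminescence with CellTiter-Glo after 30 min at room temperature.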
# [5] = biological target: Cellular tumor antigen p53 (Homo sapiens) (UniProt P04637); test: TOX21_p53_BLA_p3_ratio: Tox21 HCT-116 p53 Agonism Beta-lactamase Assay, Ratio, Phase 3 (AID 2283596)
# Summary of the method: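 HCT116 p53-bla cells (4000/well) given compound in DMSO (217-fold dilution) after 5 h, incubated 16 h at 37C. CCF4-AM substrate 2 h at room temperature; 460/530 nm emission ratio, gain fitted against DMSO.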
# [6] = biological target: Cellular tumor antigen p53 (Homo sapiens) (UniProt P04637); test: TOX21_p53_BLA_p5_ratio: Tox21 HCT-116 p53 Agonism Beta-lactamase Assay, Ratio, Phase 5 (AID 2283599)
# Summary of the method: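 HCT-116 p53-bla cells (4000/well) plated 5 h, dosed with compound (217-fold DMSO dilution) for 16 h at 37 C; CCF4-AM substrate 2 h at room temperature. Activity is the 460/530 nm emission ratio (405 nm excitation), fitted in gain-of-signal direction versus DMSO.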
# [7] = TOX21_p53_BLA_p5_viability: Viability Assessment in the Tox21 HCT-116 p53 Agonism Beta-lactamase Assay, Phase 5 (AID 2283600)
# Summary of the method: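 After the 460/530 nm beta-lactamase measurement, the wells received an ATP-detection luciferase reagent; signal was read 30 min later at RT. Compound treatment lasted 16 h on cells pre-incubated 5 h post-seeding.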
# [8] = biological target: Cellular tumor antigen p53 (Homo sapiens) (UniProt P04637); test: TOX21_p53_BLA_p4_ratio: Tox21 HCT-116 p53 Agonism Beta-lactamase Assay, Ratio, Phase 4 (AID 2283601)
# Summary of the method: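 HCT-116 p53 beta-lactamase reporter cells (4000/well) preincubated 5 h, then compound (217-fold dilution of DMSO stock) for 16 h at 37C. CCF4-AM substrate added 2 h at room temperature; 460/530 nm emission ratio fitted upward versus DMSO.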
# [9] = TOX21_p53_BLA_p4_viability: Viability Assessment in the Tox21 HCT-116 p53 Agonism Beta-lactamase Assay, Phase 4 (AID 2283597);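 also: hits lower the luminescence signal meaning cytotoxicity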
# Summary of the method: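 Following a 16 h exposure at 37C, the treated HCT116 wells were first read for the FRET ratio. They were then lysed with CellTiter-Glo, and ATP luminescence was recorded after 30 min at room temperature.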
# [10] = Tanguay_ZF_120hpf_EYE_legacy: (Legacy) Oregon State University Tanguay Lab 120 Hour Post-fertilization zebrafish Assay for Eye Malformation (AID 2283636);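 also: binary presence or absence of eye malformation scored by brightfield in 120 hpf larvae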
# Summary of the method: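 Dechorionated Tropical 5D zebrafish embryos, one per well from 6 hpf, static exposure to 120 hpf at 28C, 0.64% DMSO. Eye malformation scored present/absent by brightfield; dead embryos not scored.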
# [11] = Tanguay_ZF_120hpf_SNOU_legacy: (Legacy) Oregon State University Tanguay Lab 120 Hour Post-fertilization zebrafish Assay for Snout Malformation (AID 2283637)
# Summary of the method: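 Dechorionated tropical 5D wild-type zebrafish embryos exposed statically from 6 to 120 hpf at 28C, one per well, in 0.64% DMSO. Snout malformation scored as present/absent by brightfield at 120 hpf; dead embryos not scored.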
# [12] = Tanguay_ZF_120hpf_JAW_legacy: (Legacy) Oregon State University Tanguay Lab 120 Hour Post-fertilization zebrafish Assay for Jaw Malformation (AID 2283638)
# Summary of the method: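 Binary jaw-malformation call at 120 hpf by brightfield microscopy. Embryos (Tropical 5D strain, chorion removed at 4 hpf) were dosed statically at 6 hpf, one per well, at 28C with 0.64% DMSO. Embryos that died were not scored.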
# [13] = Tanguay_ZF_120hpf_YSE_legacy: (Legacy) Oregon State University Tanguay Lab 120 Hour Post-fertilization zebrafish Assay for Yolk Sac Edema (AID 2283634)
# Summary of the method: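 Presence or absence of yolk sac edema was recorded at 120 hpf in surviving larvae. These were wild-type Tropical 5D embryos, chorion removed at 4 hpf, held in static exposure at 28C from 6 hpf with 0.64% DMSO vehicle.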
compound,measurement,setting,value
CCCCCCCCC,AC50,[1],inconclusive: 50 µM
same,AC50,[2],inconclusive: 46.1 µM
same,AC50,[3],inconclusive: 47.1 µM
same,AC50,[4],inconclusive: 46.1 µM and inconclusive: 601 nM
same,AC50,[5],inconclusive: 79.8 µM
same,AC50,[6],inconclusive: 46.1 µM and inconclusive: 47.1 µM
same,AC50,[7],inconclusive: 46.1 µM
same,AC50,[8],inconclusive: 47.1 µM
C=C[Si](C)(C)O[Si](C)(C)C=C,outcome,[1],inactive
same,outcome,[2],inactive
same,AC50,[4],inconclusive: 46.1 µM
same,AC50,[9],inconclusive: 46.1 µM
same,AC50,[6],inconclusive: 46.1 µM
same,AC50,[7],inconclusive: 46.1 µM
same,AC50,[8],inconclusive: 46.1 µM
CC1=CC(=O)/C(=C(/C)O)C(=O)O1,AC50,[1],inconclusive: 12.2 µM
same,AC50,[2],inconclusive: 46.1 µM
same,AC50,[3],inconclusive: 46.1 µM
same,AC50,[9],inconclusive: 72.7 µM
same,AC50,[10],inconclusive: 12.5 µM
same,AC50,[11],inconclusive: 5.44 µM
CCOC(=O)c1ccccc1,outcome,[1],inactive
same,outcome,[2],inactive
same,outcome,[6],inactive
same,AC50,[8],inconclusive: 46.1 µM
OC(CCl)CCl,AC50,[1],inconclusive: 50 µM
same,AC50,[2],inconclusive: 0.741 µM
same,outcome,[4],inactive
same,AC50,[5],inconclusive: 46.1 µM
same,AC50,[9],inconclusive: 0.112 µM
same,outcome,[9],inactive
same,AC50,[7],inconclusive: 0.0496 µM
same,outcome,[7],inactive
same,AC50,[8],inconclusive: 46.1 µM and inconclusive: 47 µM
same,outcome,[12],inactive
C[C@@H]1C[C@H]2[C@@H]3CCC4=CC(=O)C=C[C@]4(C)[C@@]3(F)[C@@H](O)C[C@]2(C)[C@@]1(O)C(=O)COP(=O)(O)O,AC50,[1],inconclusive: 50 µM
same,AC50,[2],inconclusive: 43.3 µM and inconclusive: 23 µM
same,AC50,[4],inconclusive: 23 µM
same,AC50,[5],inconclusive: 43.3 µM and inconclusive: 23 µM
same,AC50,[9],inconclusive: 43.3 µM
same,AC50,[6],inconclusive: 23 µM
same,AC50,[7],inconclusive: 1.22 µM
same,AC50,[8],inconclusive: 43.3 µM and inconclusive: 23 µM
CC(C)(O)c1ccc(CNC(=O)c2cccnc2Oc2ccc3nonc3c2)cc1,AC50,[1],inconclusive: 91.4 µM
same,outcome,[2],inactive
same,AC50,[4],inconclusive: 46.1 µM
same,AC50,[9],inconclusive: 46.1 µM
same,outcome,[6],inactive
same,AC50,[7],inconclusive: 46.1 µM
C=CCCCCCCCCC(=O)O,outcome,[1],inactive
same,AC50,[2],inconclusive: 0.139 µM
same,AC50,[3],inconclusive: 46.1 µM
same,AC50,[4],inconclusive: 46.1 µM
same,AC50,[5],inconclusive: 46.1 µM and inconclusive: 23 µM
same,AC50,[6],inconclusive: 46.1 µM
same,AC50,[7],inconclusive: 46.1 µM
same,AC50,[8],inconclusive: 23 µM
CN(C[C@@H](CC[N+]12CCC(C3CCCCC3)(CC1)CC2)c1ccc(Cl)c(Cl)c1)C(=O)c1cc(C(F)(F)F)cc(C(F)(F)F)c1,AC50,[1],inconclusive: 22.1 µM and inconclusive: 22.6 µM
same,AC50,[2],active: 25.9 µM
same,AC50,[3],active: 64.8 µM
same,AC50,[4],active: 58.7 µM
same,AC50,[5],active: 87 µM
same,AC50,[9],active: 14.8 µM
same,AC50,[6],active: 77.8 µM
same,AC50,[7],active: 46.8 µM
same,AC50,[8],active: 27.5 µM
NC(=O)c1ccccc1O,outcome,[1],inactive
same,AC50,[2],inconclusive: 0.968 nM and inconclusive: 45 µM
same,AC50,[3],inconclusive: 45 µM
same,AC50,[4],inconclusive: 46.1 µM and inconclusive: 45 µM
same,outcome,[4],inactive
same,AC50,[5],inconclusive: 23 µM
same,AC50,[9],inconclusive: 46.1 µM and inconclusive: 45 µM and inconclusive: 23 µM
same,AC50,[6],inconclusive: 45 µM and inconclusive: 23 µM
same,outcome,[6],inactive
same,AC50,[8],inconclusive: 45 µM
CC1=NN(c2ccc(S(=O)(=O)O)cc2)C(=O)C1N=Nc1ccccc1 (stereo not drawn),AC50,[1],inconclusive: 50 µM
same,AC50,[2],inconclusive: 46.1 µM
same,AC50,[4],inconclusive: 46.1 µM
same,AC50,[5],inconclusive: 46.1 µM
same,AC50,[6],inconclusive: 46.1 µM
same,AC50,[7],inconclusive: 46.1 µM
CCCCOCCOC(=O)COc1nc(Cl)c(Cl)cc1Cl,AC50,[1],inconclusive: 2.19 µM
same,AC50,[2],inconclusive: 46.1 µM
same,outcome,[4],inactive
same,outcome,[7],inactive
Cc1cc2c(cc1C(F)(F)F)N(C(=O)Nc1ccc(Oc3cccnc3C)nc1)CC2,AC50,[1],active: 29.2 µM
same,outcome,[2],inactive
same,AC50,[6],inconclusive: 42.4 µM
same,outcome,[7],inactive
same,outcome,[13],inactive
C[C@]12CC[C@@H]3c4ccc(O)cc4CC[C@H]3[C@@H]1CC[C@H]2O,outcome,[1],inactive
same,AC50,[2],inconclusive: 46.1 µM
same,outcome,[2],inactive
same,AC50,[3],active: 15.9 µM
same,AC50,[4],inconclusive: 46.1 µM
same,outcome,[4],inactive
same,AC50,[5],active: 67.5 µM and active: 15.8 µM
same,outcome,[9],inactive
same,AC50,[6],active: 73.4 µM and active: 16.7 µM
same,AC50,[7],inconclusive: 46.1 µM and inconclusive: 2.66 µM
same,AC50,[8],active: 26.2 µM

# Given tab-delimited: part of the list above
compound	measurement	setting	value
CCCCCCCCC	AC50	[6]	inconclusive: 46.1 µM and inconclusive: 47.1 µM
C=CCCCCCCCCC(=O)O	AC50	[2]	inconclusive: 0.139 µM
NC(=O)c1ccccc1O	outcome	[1]	inactive
C[C@]12CC[C@@H]3c4ccc(O)cc4CC[C@H]3[C@@H]1CC[C@H]2O	outcome	[9]	inactive
